Values quoted from earlier work in patent US4977268A, “Boron dipeptide compounds” (priority 1988, dated 1990).
For at least one compound, name, drawing or mass did not settle the structure.

Settings: cited from earlier work

In the case of C[N+](C)(C)[BH2-]C(=O)O [Me3 N.BH2 CO2 H, trimethylamine-carboxyborane], the “pKa relative to the carboxylic acid group in Me3 N+ CH2 CO2 H” value is given as “about six log units more basic”.
